These results are taken from patent US20260345641A1, “COMPOSITIONS AND USES THEREOF” (Algorae Pharmaceuticals Ltd, priority 2023, published 2026).

One data set relates to SH-SY5Y cells. In words: Gene expression analysis by RNA sequencing in the presence of Aβ. It counts as cell-based, human. The note with it: 5 μM, with Aβ. An excerpt: The SH-S5Y5 neuroblastoma cell line was used for pre-clinical analysis. The SH-S5Y5 cell line is commonly used as a model for neurodegenerative disorders as the cells can be converted to various types of functional neurons by the addition of specific compounds (see, e.g., Xicoy et al., 2017, Molecular Neurodegeneration, 12: 10). In addition, the SH-S5Y5 cell line has been used widely in experimental neurological studies, including analysis of neuronal differentiation, metabolism, and function related to neurodegenerative processes, neurotoxicity and neuroprotection (see, e.g., Datki et al., 2003, Brain Research Bulletin, 62(3): 22-229; and Xie et al., 2010, Chinese Medical Journal, 123(8): 1086-1092).
Total RNA was isolated from cells using TRIzol in accordance with the manufacturer's instructions (Invitrogen, Carlsbad, CA, USA). RNA concentration and quality was assessed using a NanoDrop spectrophotometer. Only samples with a 260/280 ratio of ≥1.8 were used for further analysis.
Messenger RNA (mRNA) was purified from total RNA using poly-T oligo attached magnetic beads. After fragmentation, cDNA synthesis was performed in accordance with the manufacturer's instructions (Illumina, San Diego, CA, USA) to generate a directional and non-directional library. Libraries were checked with Qubit, real-time PCR was performed for quantification, and size distribution detection was performed using the Bioanalyzer. Quantified libraries were pooled and sequenced on an Illumina platform, according to the manufacturer's instructions.
Raw reads were filtered and mapped to human reference genome (GRCh38/hg38) using HISAT2. Differential gene expression analysis was performed using R Package DEG seq2. […] Manual annotation of genes previously associated with specific neurodegenerative disorders and dementias was performed following a text mining analysis.

The conditions of data set [1]: oral administration; cited from earlier work.

With `COc1cc2c(cc1OC)C(=O)C(CC1CCN(Cc3ccccc3)CC1)C2` (centres unmarked) [Donepezil], in the data set with SH-SY5Y cells (control 0.139, P 0.051), the CARD14 gene expression came out at 0.106. Further, the CYP51A1 gene expression with SH-SY5Y cells (control 1.068, P 0.020) was 1.389. In addition, the CYP27A1 gene expression in the data set on SH-SY5Y cells (control 2.685, P 0.037) was 0.693. Further, the EIF2B4 gene expression with SH-SY5Y cells (control 17.110, P 0.014) is on record as 13.862. The bioavailability result in data set [1] is “high bioavailability”.
